Experimental findings from PubChem BioAssay AID493014 (National Center for Advancing Translational Sciences (NCATS), 2011) are described below.

As usually defined, the AC50 is the concentration at which the activity in the assay is half-maximal.

Where “and” joins values, the source holds several entries; their conditions need not be identical. Equal entries are not always repeated. The list shows a part of the results. The main result of the screen is listed elsewhere. These columns were measured beside it and carry no call. Most of these compounds were active or inconclusive in the main read-out, so they are no random draw. The note in brackets gives the kind of curve behind each potency; many fits are weak.

This assay is described as follows: qHTS Assay to Find Inhibitors of Chronic Active B-Cell Receptor Signaling. The conditions noted are these: ABC-DLBCL IkBa-CBG/CBR reporter, luminescence ratio (green luciferase fused to IkBa over red control in TMD8 lymphoma cells), 4 h. In short, it runs like this: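 TMD8 ABC-DLBCL cells carrying doxycycline-inducible green luciferase fused to IkappaBalpha plus unfused red luciferase were exposed to compounds (up to 46 uM) for 4 hrs at 37C. Activity came from the overlap-corrected green/red luminescence ratio.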
A general note: Quantitative high-throughput screening tests each substance at several concentrations.

[1] abbreviates: measured here: CBR red luminescence, cell number.
[2] abbreviates: measured here: IkBa-CBG green luminescence.

For the compound `CC(C)(C)NCCOCCOc1ccccc1-c1ccccc1`, the half-maximal activity concentration (AC50) under setting [1] was 16.4 µM [falling, single point].

On to `CCCOC(=O)C1C2C=CC(C2)C1C(=O)OCC(=O)c1ccccc1` (stereo unspecified), for which, under setting [1], the AC50 is 32.6 µM [rising, single point].

In the case of `O=C(NC(=S)Nc1ccc(CN2CCOCC2)cc1)c1ccc2c(c1)OCCO2`, the AC50 under setting [1] was 6.31 µM [falling, full curve, poor fit]. In the case of `COCCNC(=O)Cn1nc(-c2ccccc2)c2ccccc2c1=O`, under setting [1], the AC50 is 35.5 µM [rising, single point] and 20 µM [rising, partial curve, poor fit]. The same measure, in the same setting: the same measure for `CCOC(=O)c1cnn(-c2ccc(C(F)(F)F)cn2)c1N`: 5.17 µM [rising, full curve]; for `CCc1cccc2c(C(=O)CSc3nncn3-c3ccccc3OC)c[nH]c12`: 11.6 µM [falling, partial curve, poor fit]. As to `O=C(NCCCn1ccnc1)c1cc(-c2cccc(O)c2)on1`, the AC50 under setting [1] was 12.6 µM [falling, partial curve, poor fit]. On to `Nc1nc(N)c(N=O)c(OCC2CCCCC2)n1`, for which the AC50 is 12.6 µM [rising, partial curve] under setting [1] and 10 µM [falling, partial curve] under setting [2].

As to `O=C(Nc1ccc2c(c1)CCCN2C(=O)c1ccco1)c1cc([N+](=O)[O-])ccc1Cl`, the AC50 under setting [1] is 18.4 µM [falling, partial curve]. Still for that read-out and setting: then `O=C(O)CCCNc1c(C(=O)Nc2ccc(Cl)cc2)cc([N+](=O)[O-])cc1[N+](=O)[O-]`, with 15.8 µM [falling, partial curve, poor fit]; and `COc1cc(S(=O)(=O)Nc2ccccc2C(=O)N2CCCCC2)ccc1NC(C)=O`, with 29.1 µM [rising, single point]. As to `O=C(N/N=C/C=C/c1ccc2c(c1)OCO2)c1ccc([N+](=O)[O-])cc1`, under setting [1], the AC50 is 0.0146 µM [rising, full curve, poor fit]. Take `Cc1cccc(N(C(=O)c2nsc(Cl)c2Cl)C(C(=O)NC2CCCC2)c2ccc(O)cc2)c1C` (stereo unspecified): under setting [1], the AC50 was 10.3 µM [falling, partial curve]. Turning to `O=C(O)CN1CCN(Cc2ccc(F)cc2)C1=O`, the AC50 under setting [1] is 0.708 µM [rising, partial curve, poor fit]. Regarding `CCCOc1ccc(-c2csc(N)n2)cc1[N+](=O)[O-]`, the AC50 was 8.2 µM [rising, partial curve] under setting [1] and 29.1 µM [falling, single point] under setting [2]. With `CCOC(=O)N1CCC2(CC1)C(C#N)=C(N)Oc1n[nH]c(C)c12`, the half-maximal activity concentration (AC50) under setting [1] was 16.4 µM [falling, partial curve, poor fit]. On the same count and under the same terms, the same measure for `O=C(O)Cn1nc2ccccc2n1`: 2.06 µM [rising, partial curve, poor fit]; for `Cc1nn(CCC(=O)NNC(=S)Nc2ccc(F)cc2)c(C)c1Br`: 32.6 µM [rising, single point]; for `O=C(O)c1ccccc1Sc1c([N+](=O)[O-])cc(C(F)(F)F)cc1[N+](=O)[O-]`: 20 µM [falling, partial curve, poor fit]. Turning to `COCCNC(=O)c1cc(-c2cccc(OC)c2)on1`, the half-maximal activity concentration (AC50) under setting [1] is 20 µM [falling, single point]. On to `CN(C)CCNC(=O)/C=C/c1cn(-c2ccccc2)nc1-c1cc2ccccc2oc1=O`, for which the AC50 under setting [1] is 35.5 µM [falling, single point]. Consider `C/C(=N\NC(N)=S)C1(C)CC2(CC(C)(C)OC2=O)C(=O)O1` (stereo unspecified), for which, under setting [1], the AC50 is 3.16 µM [rising, partial curve]. On the same count and under the same terms, the same measure for `CCc1cccc(OCCn2nc(C(=O)O)c3ccccc3c2=O)c1`: 5.62 µM [rising, single point]. Consider `CN(c1ccc(C(=O)Nc2ccc(Cl)cn2)cc1)S(=O)(=O)c1ccccc1`, for which the AC50 under setting [1] was 7.94 µM [falling, partial curve, poor fit].

For `c1ccc(C2=Nn3c(nnc3-c3cc(-c4ccccc4)n[nH]3)SC2)cc1`, under setting [2], the concentration at half-maximal activity (AC50) is 13 µM [falling, partial curve, poor fit]. For `COc1ccc(/C=C/c2cc(C(F)(F)F)on2)cc1`, the AC50 under setting [1] is 35.5 µM [rising, partial curve, poor fit]. Regarding `CCOC(=O)CC(=O)N/N=C/c1c(N)n(C)c(=O)n(C)c1=O`, under setting [1], the AC50 is 7.08 µM [falling, full curve]. For the compound `COc1cc(OC)c(OC)cc1/C=C/c1nc2cc3ccccc3cc2c(=O)n1-c1ccccc1Br`, under setting [1], the AC50 is 5.62 µM [falling, full curve]. Take `NNC(=O)c1ccc(OCC2CC(c3ccc(Cl)cc3)=NO2)cc1` (stereo unspecified): the AC50 under setting [1] is 1.12 µM [falling, partial curve, poor fit]. For the compound `O=C(N/N=C/c1cc(Br)c(Br)o1)c1ccc2c(c1)OCCO2`, under setting [1], the AC50 is 11.2 µM [falling, partial curve, poor fit]. The same measure, in the same setting: then `COc1ccc(-n2cc(CNCC3CC(=O)N(C4CC4)C3)c(-c3ccccc3Cl)n2)cc1` (stereo unspecified), with 3.55 µM [rising, single point]; and `COc1ccc(OC)c(-n2c(-c3cccc(O)c3)n[nH]c2=S)c1`, with 20.6 µM [rising, single point]. Consider `CN1CCN(C(=O)c2cc(-c3ccco3)on2)CC1`, for which the AC50 under setting [1] was 6.51 µM [rising, partial curve, poor fit]. Take `O=C(NCc1ccco1)C1CCN(C(=O)c2cc3sccc3n2Cc2ccc(Cl)cc2)CC1`: the AC50 under setting [1] was 13 µM [falling, partial curve, poor fit]. The same measure, in the same setting: then `Cn1c(=O)cc(SCC(=O)Nc2ccc3c(c2)OCO3)c2ccccc21`, with 10 µM [rising, partial curve, poor fit]; and `CCOC(=O)C1(Cc2ccccc2)CCN(Cc2cn(CC(=O)OC)c3ccccc23)CC1`, with 17.8 µM [falling, partial curve, poor fit].

For the compound `CSCc1nc2scc(-c3ccccc3)c2c(=O)[nH]1`, the AC50 under setting [1] was 3.98 µM [rising, full curve, poor fit]. Regarding `O=C(COc1ccc(Cl)cc1Cl)NN1C(=O)/C(=C\c2ccc(Cl)cc2)SC1=S`, the AC50 under setting [1] was 0.355 µM [rising, full curve, poor fit]. Regarding `O=[N+]([O-])c1ccc(O)c(/C=N/n2cnc3ccccc32)c1`, the AC50 under setting [1] was 0.731 µM [rising, full curve, poor fit].
